Assay results from PMC3667844.
No constants are given. Whether binding was seen depends on the method and setting. Some entries that bind do so weakly or less than the wild type.

The chains behind the UniProt entries cited, without tags or fusion partners. Where a name states a change or a piece, a line headed by the entry shows the natural chain unless it says otherwise.
UniProt P62820: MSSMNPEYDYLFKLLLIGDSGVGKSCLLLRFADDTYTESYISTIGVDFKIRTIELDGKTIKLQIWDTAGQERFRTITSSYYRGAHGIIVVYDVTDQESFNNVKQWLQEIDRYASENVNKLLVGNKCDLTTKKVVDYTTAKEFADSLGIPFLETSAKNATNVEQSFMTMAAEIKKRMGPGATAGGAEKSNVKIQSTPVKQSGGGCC
UniProt P61019: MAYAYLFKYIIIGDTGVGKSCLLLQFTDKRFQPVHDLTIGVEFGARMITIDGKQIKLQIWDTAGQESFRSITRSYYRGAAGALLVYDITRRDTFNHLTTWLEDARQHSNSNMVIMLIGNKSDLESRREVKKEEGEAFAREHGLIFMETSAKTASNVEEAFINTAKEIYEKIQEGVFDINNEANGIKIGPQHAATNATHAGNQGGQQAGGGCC
UniProt Q9H082: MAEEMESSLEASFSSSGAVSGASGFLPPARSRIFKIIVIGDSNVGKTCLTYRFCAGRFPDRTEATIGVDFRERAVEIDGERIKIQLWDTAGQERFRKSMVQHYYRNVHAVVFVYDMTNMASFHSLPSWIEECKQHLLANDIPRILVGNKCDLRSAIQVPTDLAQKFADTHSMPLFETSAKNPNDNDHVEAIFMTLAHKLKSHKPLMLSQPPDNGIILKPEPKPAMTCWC
UniProt Q9H0U4: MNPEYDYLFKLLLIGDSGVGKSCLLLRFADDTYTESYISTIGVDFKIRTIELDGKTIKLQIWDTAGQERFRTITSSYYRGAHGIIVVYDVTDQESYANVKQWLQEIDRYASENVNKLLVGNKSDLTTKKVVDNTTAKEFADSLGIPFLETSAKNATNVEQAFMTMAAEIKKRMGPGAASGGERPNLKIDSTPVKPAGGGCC
UniProt P62491: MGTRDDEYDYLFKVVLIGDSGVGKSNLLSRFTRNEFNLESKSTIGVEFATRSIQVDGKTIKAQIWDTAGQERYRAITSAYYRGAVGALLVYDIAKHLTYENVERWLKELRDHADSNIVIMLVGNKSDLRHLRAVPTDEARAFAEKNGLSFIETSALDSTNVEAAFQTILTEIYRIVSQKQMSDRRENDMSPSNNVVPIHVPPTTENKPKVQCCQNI
UniProt P01123: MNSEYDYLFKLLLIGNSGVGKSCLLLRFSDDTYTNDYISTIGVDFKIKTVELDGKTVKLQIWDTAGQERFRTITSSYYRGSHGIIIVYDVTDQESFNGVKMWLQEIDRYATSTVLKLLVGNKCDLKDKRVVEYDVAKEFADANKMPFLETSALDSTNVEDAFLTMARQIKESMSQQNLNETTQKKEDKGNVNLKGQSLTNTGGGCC
UniProt P61586: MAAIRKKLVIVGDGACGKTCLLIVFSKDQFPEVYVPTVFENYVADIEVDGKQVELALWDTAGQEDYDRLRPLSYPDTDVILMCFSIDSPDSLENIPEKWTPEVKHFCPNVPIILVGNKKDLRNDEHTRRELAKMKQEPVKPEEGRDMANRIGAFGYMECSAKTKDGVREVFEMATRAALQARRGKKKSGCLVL

Assays:
[1] = target: LexA Rab6B Q72L (pLex9), bait of the initial screen (UniProt Q9NRW1); assay: two-hybrid; library screen: LexA Rab6B Q72L (pLex9) as bait against a random-primed human placenta cDNA library in pP6; mating of Y187 and L40ΔGal4; selection without tryptophan, leucine and histidine with 5 mM 3-aminotriazole
[2] = target: pAS Rab1A wt (UniProt P62820); assay: two-hybrid; Y190 co-transformed with prey (pP6 or pACT) and bait (pAS) plasmids; growth on synthetic medium lacking leucine, tryptophan and histidine with 30 mM 3 AT (his3)
[3] = target: pAS Rab2 Q65L (UniProt P61019); assay: as above
[4] = target: pAS Rab33B T47N (UniProt Q9H082); assay: as above
[5] = target: T1, pAS Ypt6p Q69L (yeast) (UniProt Q99260); assay: as above
T1 sequence: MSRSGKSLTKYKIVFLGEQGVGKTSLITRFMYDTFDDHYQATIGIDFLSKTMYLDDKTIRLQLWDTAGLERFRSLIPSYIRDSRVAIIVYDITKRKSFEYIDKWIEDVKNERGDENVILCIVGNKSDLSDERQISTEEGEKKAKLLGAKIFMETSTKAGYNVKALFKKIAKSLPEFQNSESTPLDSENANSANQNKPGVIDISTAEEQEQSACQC

[6] = target: pAS Rab1B Q67L (UniProt Q9H0U4); assay: as above
[7] = target: pAS Rab33B Q92L (UniProt Q9H082); assay: as above
[8] = target: pAS Rab11A wt (UniProt P62491); assay: as above
[9] = target: T2, pAS Rab6A' Q72L (UniProt P20340); assay: as above
T2 sequence: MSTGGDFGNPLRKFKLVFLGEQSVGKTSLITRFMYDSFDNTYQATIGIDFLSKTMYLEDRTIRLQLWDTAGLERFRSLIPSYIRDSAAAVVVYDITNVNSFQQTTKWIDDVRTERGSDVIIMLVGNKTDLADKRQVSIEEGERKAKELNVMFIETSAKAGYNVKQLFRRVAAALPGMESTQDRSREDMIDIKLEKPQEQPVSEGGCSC

[10] = target: pAS Ypt1 wt (UniProt P01123); assay: as above
[11] = target: pAS RhoA wt (UniProt P61586); assay: as above
[12] = target: pAS Rab33B wt (UniProt Q9H082); assay: as above
[13] = target: pAS Rab6A Q72L (UniProt P20340); assay: as above
[14] = target: pAS Rab6B Q72L (UniProt Q9NRW1); assay: as above
[15] = target: pAS Rab2 wt (UniProt P61019); assay: as above
[16] = target: pAS Ypt6p wt (yeast) (UniProt Q99260); assay: as above
[17] = target: pAS Rab1B wt (UniProt Q9H0U4); assay: as above
[18] = target: pAS Rab1A wt (UniProt P62820); assay: two-hybrid; Y190 co-transformed with prey (pP6 or pACT) and bait (pAS) plasmids; β-galactosidase reporter activity on replica filters with X-gal (β-gal)
[19] = target: pAS Ypt1 wt (UniProt P01123); assay: as above
[20] = target: pAS RhoA wt (UniProt P61586); assay: as above
[21] = target: pAS Rab2 wt (UniProt P61019); assay: as above
[22] = target: pAS Ypt6p wt (yeast) (UniProt Q99260); assay: as above

binding [1]: binds
binding [2]: no binding
binding [3]: no binding
binding [4]: no binding
binding [5]: no binding
binding [6]: no binding
binding [7]: no binding
binding [8]: no binding
binding [9]: binds
binding [10]: no binding
binding [11]: no binding
binding [12]: no binding
binding [13]: binds
binding [14]: binds
binding [15]: no binding
binding [16]: no binding
binding [17]: no binding
binding [18]: no binding
binding [19]: no binding
binding [20]: no binding
binding [21]: no binding
binding [22]: no binding
B1: pP6 Mint1 (aa 438–769), yeast two-hybrid clone that lacks aa 495–505 (domain or fragment, UniProt Q02410-1)
chain: ASFPTYVEVPGPCDPEDLIDGIIFAANYLGSTQLLSDKTPSKNVRMMQAQEAVSRIKAPEGESQPMTEVDLFISTQRIKVLNADTQETMMDHPLRTISYIADIGNIVVLMARRRMPRSNSQENVEASHPSQDGKRQYKMICHVFESEDAQLIAQSIGQAFSVAYQEFLRANGINPEDLSQKEYSDLLNTQDMYNDDLIHFSKSENCKDVFIEKQKGEILGVVIVESGWGSILPTVIIANMMHGGPAEKSGKLNIGDQIMSINGTSLVGLPLSTCQSIIKGLKNQSRVKLNIVRCPPVTTVLIRRPDLRYQLGFSVQNGIIC
